Experimental data from patent US20250213694A1 (SHANGHAI SIMNOVA BIOTECHNOLOGY, published 2025).
Results are given in words; binding and its absence hold for the method and conditions named. Some results given as binding are weak or reduced against the parent protein; the word gives no strength.

By UniProt entry, the sequences of proteins in these tests, tags left out. Residues count along the entry.
UniProt Q02223, residues 1-54: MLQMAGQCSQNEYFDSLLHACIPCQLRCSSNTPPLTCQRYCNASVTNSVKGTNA

Target: human BCMA protein (human) (UniProt Q02223)
Test: phage library panning and clone identification

B1: VHH2 (VHH)
VHH: QVQLVESGGGLVQSRGSLRLSCAASESISSIHIMAWYRRAPGKQRELVAGIRNDGSTVYADSAKGRFTISRDNAKNTVYLQMNSLKPEDTAVYYCNADQGFGSYSEWERRSRWGQGTEVTVSS
- binding: binds
